# Experimental data as given in the supplement of paper PMC8728848.
# Some of the results follow.
# B1: C-Reactive Protein (Homo sapiens), P02741 (protein)
# chain: MEKLLCFLVLTSLSHAFGQTDMSRKAFVFPKESDTSYVSLKAPLTKPLKAFTVCLHFYTELSSTRGYSIFSYATKRQDNEILIFWSKDIGYSFTVGGSEILFEVPEVTVAPVHICTSWESASGIVEFWVDGKPRVRKSLKKGYTVGAEASIILGQEQDSFGGNFEGSQSLVGDIGNVNMWDFVLSPDEINTIYLGGPFSPNVLNWRALKYEVQGEVFTKPQLWP
# Tests used:
# Experiment in all cases: glycan array binding signal (z-score within array); higher = stronger binding
# Conditions in all cases: glycan notation: IUPAC condensed, linker removed
# [1] = molecular target: Gal(b1-4)GlcNAc(b1-6)GalNAc
# In short: (§1)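 From the Consortium for Functional Glycomics database, 3228 arrays were curated, keeping only those whose protein sequence was available. Binding is given as a within-array Z-score averaged across arrays sharing a protein sequence and across linkers. Negative Z-scores can be read as non-binding.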
# [2] = molecular target: Gal(b1-4)GlcNAc(b1-6)[Gal(b1-3)]GalNAc
# In short: as §1
# [3] = molecular target: Gal(b1-4)GlcNAc(b1-6)[Gal(b1-3)]GlcNAc
# In short: as §1
# Gal3S(b1-3)GalNAc = molecular target: Gal3S(b1-3)GalNAc
# In short: as §1
# Gal3S(b1-3)GlcNAc = molecular target: Gal3S(b1-3)GlcNAc
# In short: as §1
# [4] = molecular target: Gal3S(b1-3)[Fuc(a1-4)]GlcNAc
# In short: as §1
# Gal3S(b1-4)Glc = molecular target: Gal3S(b1-4)Glc
# In short: as §1
# Gal3S(b1-4)Glc6S = molecular target: Gal3S(b1-4)Glc6S
# In short: as §1
# Gal3S(b1-4)GlcNAc = molecular target: Gal3S(b1-4)GlcNAc
# In short: as §1
# Gal3S(b1-4)GlcNAc6S = molecular target: Gal3S(b1-4)GlcNAc6S
# In short: as §1
# Gal3S6S(b1-4)GlcNAc = molecular target: Gal3S6S(b1-4)GlcNAc
# In short: as §1
# Gal3S6S(b1-4)GlcNAc6S = molecular target: Gal3S6S(b1-4)GlcNAc6S
# In short: as §1
# Gal4S(b1-4)GlcNAc = molecular target: Gal4S(b1-4)GlcNAc
# In short: as §1
# Gal4S6S(b1-4)GlcNAc = molecular target: Gal4S6S(b1-4)GlcNAc
# In short: as §1
# Gal6S(b1-4)Glc = molecular target: Gal6S(b1-4)Glc
# In short: as §1
# Gal6S(b1-4)Glc6S = molecular target: Gal6S(b1-4)Glc6S
# In short: as §1
# Gal6S(b1-4)GlcNAc = molecular target: Gal6S(b1-4)GlcNAc
# In short: as §1
# GalNAc(a1-3)Gal = molecular target: GalNAc(a1-3)Gal
# In short: as §1
# GalNAc(a1-3)GalNAc = molecular target: GalNAc(a1-3)GalNAc
# In short: as §1
# [5] = molecular target: GalNAc(b1-3)Gal(a1-4)Gal(b1-4)GlcNAc
# In short: as §1
# GalNAc(b1-4)GlcNAc = molecular target: GalNAc(b1-4)GlcNAc
# In short: as §1
# Glc(a1-4)Glc = molecular target: Glc(a1-4)Glc
# In short: as §1
# Glc(a1-6)Glc(a1-6)Glc = molecular target: Glc(a1-6)Glc(a1-6)Glc
# In short: as §1
# Glc(b1-4)Glc = molecular target: Glc(b1-4)Glc
# In short: as §1
# Glc(b1-6)Glc = molecular target: Glc(b1-6)Glc
# In short: as §1
# GlcA(b1-3)Gal = molecular target: GlcA(b1-3)Gal
# In short: as §1
# GlcA(b1-6)Gal = molecular target: GlcA(b1-6)Gal
# In short: as §1
# [6] = molecular target: GlcNAc(a1-3)Gal(b1-4)GlcNAc
# In short: as §1
# [7] = molecular target: GlcNAc(a1-6)Gal(b1-4)GlcNAc
# In short: as §1
# [8] = molecular target: GlcNAc(b1-2)Gal(b1-3)GlcNAc
# In short: as §1
# [9] = molecular target: GlcNAc(b1-2)Man(a1-3)[GlcNAc(b1-2)Man(a1-6)]Man(b1-4)GlcNAc(b1-4)GlcNAc
# In short: as §1
# GlcNAc(b1-3)Gal = molecular target: GlcNAc(b1-3)Gal
# In short: as §1
# [10] = molecular target: GlcNAc(b1-3)Gal(b1-3)GalNAc
# In short: as §1
# GlcNAc(b1-3)Gal(b1-4)Glc = molecular target: GlcNAc(b1-3)Gal(b1-4)Glc
# In short: as §1
# [11] = molecular target: GlcNAc(b1-3)Gal(b1-4)GlcNAc
# In short: as §1
# [12] = molecular target: GlcNAc(b1-3)Gal(b1-4)GlcNAc(b1-3)Gal(b1-4)GlcNAc
# In short: as §1
# GlcNAc(b1-3)GalNAc = molecular target: GlcNAc(b1-3)GalNAc
# In short: as §1
# [13] = molecular target: GlcNAc(b1-3)[GlcNAc(b1-4)][GlcNAc(b1-6)]GlcNAc
# In short: as §1
# [14] = molecular target: GlcNAc(b1-3)[GlcNAc(b1-6)]Gal(b1-4)GlcNAc
# In short: as §1
# [15] = molecular target: GlcNAc(b1-3)[GlcNAc(b1-6)]GlcNAc
# In short: as §1
# [16] = molecular target: GlcNAc(b1-4)Gal(b1-4)GlcNAc
# In short: as §1
# [17] = molecular target: GlcNAc(b1-4)GlcNAc(b1-4)GlcNAc
# In short: as §1
# [18] = molecular target: GlcNAc(b1-4)GlcNAc(b1-4)GlcNAc(b1-4)GlcNAc(b1-4)GlcNAc
# In short: as §1
# [19] = molecular target: GlcNAc(b1-4)GlcNAc(b1-4)GlcNAc(b1-4)GlcNAc(b1-4)GlcNAc(b1-4)GlcNAc
# In short: as §1
# [20] = molecular target: GlcNAc(b1-4)[GlcNAc(b1-6)]GalNAc
# In short: as §1
# [21] = molecular target: GlcNAc(b1-6)Gal(b1-4)GlcNAc
# In short: as §1
# GlcNAc(b1-6)GalNAc = molecular target: GlcNAc(b1-6)GalNAc
# In short: as §1
# Kdn(a2-3)Gal(b1-3)GlcNAc = molecular target: Kdn(a2-3)Gal(b1-3)GlcNAc
# In short: as §1
# Kdn(a2-3)Gal(b1-4)GlcNAc = molecular target: Kdn(a2-3)Gal(b1-4)GlcNAc
# In short: as §1
# [22] = molecular target: Man(a1-2)Man(a1-2)Man(a1-3)Man
# In short: as §1
# [23] = molecular target: Man(a1-2)Man(a1-2)Man(a1-3)[Man(a1-2)Man(a1-3)[Man(a1-2)Man(a1-6)]Man(a1-6)]Man(b1-4)GlcNAc(b1-4)GlcNAc
# In short: as §1
# [24] = molecular target: Man(a1-2)Man(a1-2)Man(a1-3)[Man(a1-2)Man(a1-6)[Man(a1-3)]Man(a1-6)]Man(b1-4)GlcNAc(b1-4)GlcNAc
# In short: as §1
# [25] = molecular target: Man(a1-2)Man(a1-2)Man(a1-6)[Man(a1-3)]Man
# In short: as §1
# Man(a1-2)Man(a1-3)Man = molecular target: Man(a1-2)Man(a1-3)Man
# In short: as §1
# [26] = molecular target: Man(a1-2)Man(a1-3)[Man(a1-2)Man(a1-6)]Man
# In short: as §1
# [27] = molecular target: Man(a1-2)Man(a1-3)[Man(a1-3)[Man(a1-6)]Man(a1-6)]Man(b1-4)GlcNAc(b1-4)GlcNAc
# In short: as §1
# [28] = molecular target: Man(a1-2)Man(a1-3)[Man(a1-6)]Man(a1-6)[Man(a1-2)Man(a1-3)]Man(b1-4)GlcNAc(b1-4)GlcNAc
# In short: as §1
# Man(a1-3)[Man(a1-6)]Man = molecular target: Man(a1-3)[Man(a1-6)]Man
# In short: as §1
binder,measurement,setting,value
B1,glycan array binding signal (z-score),[1],-0.701
same,glycan array binding signal (z-score),[2],0.321
same,glycan array binding signal (z-score),[3],-0.675
same,glycan array binding signal (z-score),Gal3S(b1-3)GalNAc,0.199
same,glycan array binding signal (z-score),Gal3S(b1-3)GlcNAc,0.084
same,glycan array binding signal (z-score),[4],0.239
same,glycan array binding signal (z-score),Gal3S(b1-4)Glc,-0.319
same,glycan array binding signal (z-score),Gal3S(b1-4)Glc6S,0.437
same,glycan array binding signal (z-score),Gal3S(b1-4)GlcNAc,1.44
same,glycan array binding signal (z-score),Gal3S(b1-4)GlcNAc6S,1.48
same,glycan array binding signal (z-score),Gal3S6S(b1-4)GlcNAc,1.47
same,glycan array binding signal (z-score),Gal3S6S(b1-4)GlcNAc6S,-0.142
same,glycan array binding signal (z-score),Gal4S(b1-4)GlcNAc,-0.497
same,glycan array binding signal (z-score),Gal4S6S(b1-4)GlcNAc,2.24
same,glycan array binding signal (z-score),Gal6S(b1-4)Glc,0.477
same,glycan array binding signal (z-score),Gal6S(b1-4)Glc6S,-0.037
same,glycan array binding signal (z-score),Gal6S(b1-4)GlcNAc,0.062
same,glycan array binding signal (z-score),GalNAc(a1-3)Gal,-0.545
same,glycan array binding signal (z-score),GalNAc(a1-3)GalNAc,-0.666
same,glycan array binding signal (z-score),[5],-0.449
same,glycan array binding signal (z-score),GalNAc(b1-4)GlcNAc,-0.559
same,glycan array binding signal (z-score),Glc(a1-4)Glc,-0.315
same,glycan array binding signal (z-score),Glc(a1-6)Glc(a1-6)Glc,-0.607
same,glycan array binding signal (z-score),Glc(b1-4)Glc,-0.549
same,glycan array binding signal (z-score),Glc(b1-6)Glc,-0.117
same,glycan array binding signal (z-score),GlcA(b1-3)Gal,0.365
same,glycan array binding signal (z-score),GlcA(b1-6)Gal,-0.49
same,glycan array binding signal (z-score),[6],-0.627
same,glycan array binding signal (z-score),[7],-0.665
same,glycan array binding signal (z-score),[8],-0.421
same,glycan array binding signal (z-score),[9],-0.414
same,glycan array binding signal (z-score),GlcNAc(b1-3)Gal,-0.634
same,glycan array binding signal (z-score),[10],-0.505
same,glycan array binding signal (z-score),GlcNAc(b1-3)Gal(b1-4)Glc,-0.384
same,glycan array binding signal (z-score),[11],-0.596
same,glycan array binding signal (z-score),[12],-0.759
same,glycan array binding signal (z-score),GlcNAc(b1-3)GalNAc,0.115
same,glycan array binding signal (z-score),[13],0.055
same,glycan array binding signal (z-score),[14],-0.5
same,glycan array binding signal (z-score),[15],-0.233
same,glycan array binding signal (z-score),[16],-0.585
same,glycan array binding signal (z-score),[17],1.94
same,glycan array binding signal (z-score),[18],-0.529
same,glycan array binding signal (z-score),[19],-0.081
same,glycan array binding signal (z-score),[20],-0.377
same,glycan array binding signal (z-score),[21],-0.512
same,glycan array binding signal (z-score),GlcNAc(b1-6)GalNAc,-0.319
same,glycan array binding signal (z-score),Kdn(a2-3)Gal(b1-3)GlcNAc,-0.402
same,glycan array binding signal (z-score),Kdn(a2-3)Gal(b1-4)GlcNAc,-0.32
same,glycan array binding signal (z-score),[22],-0.422
same,glycan array binding signal (z-score),[23],-0.496
same,glycan array binding signal (z-score),[24],-0.494
same,glycan array binding signal (z-score),[25],-0.273
same,glycan array binding signal (z-score),Man(a1-2)Man(a1-3)Man,-0.318
same,glycan array binding signal (z-score),[26],-0.343
same,glycan array binding signal (z-score),[27],-0.563
same,glycan array binding signal (z-score),[28],-0.188
same,glycan array binding signal (z-score),Man(a1-3)[Man(a1-6)]Man,-0.727

# A different layout for some results above:
binder | measurement | setting | value
B1 | glycan array binding signal (z-score) | [11] | -0.596
same | glycan array binding signal (z-score) | [15] | -0.233
